Paper PMC5111583
These are yes or no findings as the source states them, for the method shown. In cells and extracts the contact can be indirect. Some results given as binding are weak or reduced against the parent protein; the word gives no strength.

Amino acid sequences for entries named in this document (tags omitted). A change or cut given only in a name is not applied to a line headed by its entry. Chains listed by the source or under a name are the forms on record and can include a tag or linker. Residues count along the entry.
UniProt Q71RC2: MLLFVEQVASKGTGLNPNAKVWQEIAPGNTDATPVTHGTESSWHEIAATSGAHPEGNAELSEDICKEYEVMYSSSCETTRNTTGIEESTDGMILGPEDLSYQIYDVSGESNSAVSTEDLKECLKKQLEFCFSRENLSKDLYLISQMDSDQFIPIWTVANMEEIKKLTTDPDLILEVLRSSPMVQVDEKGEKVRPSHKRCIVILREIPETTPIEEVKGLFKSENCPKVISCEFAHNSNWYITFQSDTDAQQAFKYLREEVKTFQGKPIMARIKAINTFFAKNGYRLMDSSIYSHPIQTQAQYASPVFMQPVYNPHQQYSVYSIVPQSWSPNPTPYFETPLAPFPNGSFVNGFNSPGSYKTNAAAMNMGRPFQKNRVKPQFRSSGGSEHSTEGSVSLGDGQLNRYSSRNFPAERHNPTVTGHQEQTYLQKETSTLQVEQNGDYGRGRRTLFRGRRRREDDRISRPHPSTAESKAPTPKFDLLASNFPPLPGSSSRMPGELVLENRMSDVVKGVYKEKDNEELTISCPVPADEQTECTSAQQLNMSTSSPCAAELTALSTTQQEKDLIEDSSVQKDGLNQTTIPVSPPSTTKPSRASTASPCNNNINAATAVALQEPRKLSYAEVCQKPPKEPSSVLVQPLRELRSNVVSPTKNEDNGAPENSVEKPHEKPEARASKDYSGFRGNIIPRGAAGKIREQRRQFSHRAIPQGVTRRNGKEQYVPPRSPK
LARP4-S388* truncation mutant (FLAG-tagged): residues 1-387 of Q71RC2
UniProt P11940: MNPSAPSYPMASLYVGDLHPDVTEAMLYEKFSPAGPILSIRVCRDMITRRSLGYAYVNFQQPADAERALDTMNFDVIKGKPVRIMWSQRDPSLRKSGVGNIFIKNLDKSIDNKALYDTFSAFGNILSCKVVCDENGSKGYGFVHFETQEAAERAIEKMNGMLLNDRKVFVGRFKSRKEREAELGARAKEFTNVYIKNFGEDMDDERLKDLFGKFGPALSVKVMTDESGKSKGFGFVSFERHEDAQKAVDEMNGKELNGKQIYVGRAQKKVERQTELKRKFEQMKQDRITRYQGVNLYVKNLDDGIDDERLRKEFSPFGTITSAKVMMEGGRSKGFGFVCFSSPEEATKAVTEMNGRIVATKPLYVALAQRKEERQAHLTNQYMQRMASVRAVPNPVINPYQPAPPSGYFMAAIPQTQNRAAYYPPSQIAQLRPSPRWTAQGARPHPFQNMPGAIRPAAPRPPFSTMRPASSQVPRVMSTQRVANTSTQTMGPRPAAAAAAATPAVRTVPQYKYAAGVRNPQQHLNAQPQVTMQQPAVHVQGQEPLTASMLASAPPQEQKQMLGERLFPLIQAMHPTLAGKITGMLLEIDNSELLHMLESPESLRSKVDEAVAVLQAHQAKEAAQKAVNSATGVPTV

How the values were obtained:
Assay in all cases: co-IP; HEK293T lysates 24 h after transfection; anti-FLAG antibody-conjugated agarose beads, 2 h at 4 °C; 20 mM Tris-HCl pH 8.0, 130 mM NaCl, 1% Triton X-100, 1 mM DTT; immunoblot for PABP1
[1] = molecular target: LARP4-I460M (FLAG-tagged) (human) (UniProt Q71RC2)
[2] = molecular target: LARP4-G489V (FLAG-tagged) (human) (UniProt Q71RC2)
[3] = molecular target: LARP4-S388* truncation mutant (FLAG-tagged) (human) (UniProt Q71RC2)
[4] = molecular target: LARP4-R406I (FLAG-tagged) (human) (UniProt Q71RC2)
[5] = molecular target: wild-type FLAG-epitope tagged LARP4 (human) (UniProt Q71RC2)
[6] = molecular target: LARP4-S470L (FLAG-tagged) (human) (UniProt Q71RC2)
[7] = molecular target: LARP4-M542R (FLAG-tagged) (human) (UniProt Q71RC2)

Measured: binding

poly(A)-binding protein (PABP1) (from UniProt P11940 1-636)
binds: all assays above
